Data taken from paper PMC5653651.
Results are given in words; binding and its absence hold for the method and conditions named. In cells and extracts the contact can be indirect. For some assays here: A result given as binding can be weak or reduced; the word gives no strength. Values belong to the binder of their own block, whether it stands above or below them.

Assays:
[1] = biological target: CtNup145C-CTD (Chaetomium thermophilum); test: pull-down; in vitro binding assay: purified prey in approximately fivefold molar excess over bait immobilised via ProtA, GST or Flag tag, in the presence of E. coli lysate; 50 min at 16 °C, HEPES–NB buffer (20 mM HEPES pH 7.5, 150 mM NaCl, 50 mM KOAc, 2 mM Mg(OAc)2, 5% glycerol, 0.01% NP40); SDS eluates, SDS-PAGE and coomassie staining; both purified
[2] = biological target: CtNup145C-NTD (Chaetomium thermophilum); test: as above
[3] = biological target: CtNup145C (full-length) (Chaetomium thermophilum); test: as above
[4] = biological target: CtY-vertex (CtNup145C–Nup85–Nup120 complex) (Chaetomium thermophilum); test: as above
[5] = biological target: GST-TEV-ScNup145C (Saccharomyces cerevisiae); test: affinity co-purification of co-expressed proteins; ScY-vertex from E. coli co-expressing the five proteins, GSH beads via GST-TEV-ScNup145C

binding [1]: binds
binding [2]: no binding
binding [3]: binds
binding [4]: binds
B1: CtSec13 (protein, UniProt G0SA60 1-308)
chain: MSQQASGAQVITNSGHDDMIHDAVLDYYGRRLATCSSDRTIKIFEIDGDSQRLTETLKGHDGAVWCVSWAHPKYGNILASAGYDGKVFIWRELNGAWSRIYDFALHKASVNVVSWAPHEAGCLLACASSDGSVSVLEFKDNSTWDYVIFPAHGLGVNSVSWAPATSPGSIVSSKPGPKATGNRRFVTGGSDNTLKIWAYDPATNTYKMEREPLTGHTDWVRDVAWSPTVLQKSYIASASQDGTVRIWTSDPANPLAWNCKVLHFDSALWRVSWSLSGNVLAVSGSDNKVTLWKENLKGEWECVKTIEE

binding [5]: binds
B2: ScSec13 (protein, UniProt Q04491 1-297)
chain: MVVIANAHNELIHDAVLDYYGKRLATCSSDKTIKIFEVEGETHKLIDTLTGHEGPVWRVDWAHPKFGTILASCSYDGKVLIWKEENGRWSQIAVHAVHSASVNSVQWAPHEYGPLLLVASSDGKVSVVEFKENGTTSPIIIDAHAIGVNSASWAPATIEEDGEHNGTKESRKFVTGGADNLVKIWKYNSDAQTYVLESTLEGHSDWVRDVAWSPTVLLRSYLASVSQDRTCIIWTQDNEQGPWKKTLLKEEKFPDVLWRASWSLSGNVLALSGGDNKVTLWKENLEGKWEPAGEVHQ
